From patent publication US5998362A (priority 1997, dated 1999)
One purity is given for all peptides; the source may state it once.

Experiment: general procedure: Boc solid-phase peptide synthesis; Boc-Leu-PAM resin; DCC and HOBT
Conditions: conjugation step, 214 nm

Final HPLC purity, 99% pure:
2-HO-Ac-Ser-Ser-Ser-Chg-Ser-Leu-Dox
N-2(R)-2,3-dihydroxypropionyl-Ser-Ser-Ser-Chg-Gln-Ser-Leu-Dox
N-2(S)-2,3-dihydroxypropionyl-Ser-Ser-Ser-Chg-Gln-Ser-Leu-Dox
N-[2-{2-(2-methoxyethoxy)ethoxy}acetyl]-Ser-Ser-Ser-Chg-Gln-Ser-Leu-Dox
